For at least one compound, name, drawing or mass did not settle the structure.
Legend:
[1] = target: ai5γ group II intron; assay: Radioanalytic self-splicing assay of SE RNA (Ki); assay type: biochemical, Saccharomyces cerevisiae; conditions: 8 mM MgCl2, 100 mM KCl, pH 7.5, 30° C.
Description: Internally labeled SE RNA (2 nM) was incubated with various concentrations of inhibitor compound under near-physiological conditions (in 50 mM MOPS, pH 7.5, 8 mM MgCl2, 100 mM KCl) at 30° C. Aliquots at different time points were quenched and analyzed on 5% denaturing polyacrylamide gel as previously described (Daniels et al., 1996, Journal of molecular biology, 256:31-49). Data were fit to a single-exponential equation to determine the first order rate constants (kobs). The latter were then plotted against the concentration of the inhibitor and fit to the equation for non-competitive inhibition to determine Ki values: kobs=kmax/(1+[I]/Ki), where kobs and kmax are the first order rate constants measured in the presence and in the absence of the inhibitor, respectively, [I] is the concentration of the inhibitor and Ki is the inhibition constant. Experiments were performed four times for API-014, three times for APY-090, Intronistat A, and Intronistat B and twice for the remaining compounds to ensure reproducibility. Data represent average±s.e.m.

[2] = test system: ai5γ group II intron (D135 ribozyme); assay: Fluorescent D135 ribozyme cleavage assay (IC50); assay type: biochemical, Saccharomyces cerevisiae; conditions: for IC50: D135 ribozyme cleavage of substrate 17/2 DL, 100 mM MgCl2, 500 mM KCl, 37° C., 10 minutes; for In vitro inhibitory activity, SAR statement (in words): relative to parent scaffold
Description: The D135 ribozyme (Su et al., 2005, Nucleic Acids Res, 33:6674-6687), fluorescently labeled oligo substrate 17/2 DL (FIG. 1A-FIG. 1D) (both at 20 nM final concentrations in 50 mM MOPS, pH 7.0, 100 mM MgCl2, 0.5M KCl), and the test compounds (final concentration of 10 μM in 50 mM MOPS, pH 7.0, 100 mM MgCl2, 0.5M KCl) were aliquoted onto black non-binding 384-well plates (Corning 3757) using the multidrop combi (ThermoFisherScientific) and pintool (V & P Scientific). The reaction mixtures were incubated at 37° C. for 45 minutes, then the reaction was quenched with 100 mM EDTA and fluorescence intensity was analyzed on a Tecan Infinite multimode plate reader (λex 520 nm, λem 560 nm, 5 nm bandwidth). Data were normalized to untreated wells and wells lacking the D135 ribozyme, and percent of inhibition was calculated using ActivityBase (IDBS). The Z′-factor was calculated as described (Zhang et al., 1999, J Biomol Screen, 4:67-73): Z′=1−3×(σp+σn)/|μp−μn|, • where μp and σn are mean value and standard deviation for the positive control (substrate only), and where μn and σn are mean value and standard deviation for the negative control (no compound). The average Z′-factor from the screen was 0.83±0.03. IC50 Measurement for the Small Molecule Inhibition of the D135 Ribozyme Cleavage Reaction.
Black 96-well plates (Corning 3695) were filled with 50 μl of solution containing 20 nM D135 ribozyme, 20 nM double-labeled substrate 17/2 DL and small molecule inhibitor in 50 mM MOPS, pH 7.0, 100 mM MgCl2 and 500 mM KCl. Small molecule inhibitors were tested at 19 different concentrations ranging from 5 nM to 1 mM. Plates were incubated at 37° C. for 10 minutes, then reaction mixtures were quenched with 100 mM EDTA and analyzed on the Synergy H1 plate reader (BioTek). Each experiment was performed in triplicate. Data were fit to a 4-parameter logistic function c+(d−c)/(1+(x/a)^b), where a is the IC50, b is the slope parameter, c is the minimum response and d is the maximum response. Data are reported as average±s.e.m

Structure (SMILES)	Ki [1]	IC50 [2]	In vitro inhibitory activity, SAR statement (in words) [2]
O=C1/C(=C/c2cc(O)c(O)c(O)c2)Oc2cccc(O)c21 [APY-019, (Z)-4-Hydroxy-2-(3,4,5-trihydroxybenzylidene)benzofuran-3(2H)-one]	4.4 ± 0.4 µM	8 ± 2 µM	without significant loss of function
O=C1/C(=C/c2cc(O)c(O)c(O)c2)Oc2ccccc21 [APY-024, (Z)-2-(3,4,5-Trihydroxybenzylidene)benzofuran-3(2H)-one]	5.8 ± 0.2 µM	7 ± 1 µM	without significant loss of function
O=C(c1cc(O)c(O)c(O)c1)c1cc2ccccc2o1 [APY-068, Benzofuran-2-yl(3,4,5-trihydroxyphenyl)methanone]	1.94 ± 0.02 µM	3.7 ± 0.6 µM	2-fold increase in in vitro potency
CCCCNS(=O)(=O)c1ccc(-c2ccc3oc(C(=O)c4cc(O)c(O)c(O)c4)cc3c2)cc1 [APY-094, N-Butyl-4-{2[(3,4,5-trihydroxyphenyl)carbonyl]-1-benzofuran-5-yl}benzene-1-sulfonamide]	3.39 ± 0.01 µM	9.9 ± 0.7 µM	
